Assay [1] has as its target V5-PP2A-Aα (UniProt P30153). The assay is described as follows: co-IP; V5 antibody coupled to Dynabeads, 30 min at 4 °C with lysates of LNCaP shNTC or shLCMT1 cells with V5-PP2A-Aα; EGFP as negative IP control; immunoblot. Background: A western blot detects proteins with antibodies after separation by electrophoresis.
In assay [2] the target is V5-LCMT1 wild type (leucine carboxyl methyltransferase 1) (UniProt Q9UIC8). Briefly: co-IP; reciprocal immunoprecipitation using FLAG-S6K1 and V5-LCMT1 (Supplementary Fig. 6g).
Assay [3] deals with B56α expressed from V245 pCEP-4HA B56α (UniProt Q15172). Briefly: co-IP; B56α antibody; lysates of HEK293-T cells co-transfected with B56α and HA-MED1 wild type or 2A mutants, 72 h post transfection; immunoblot.
Another assay deals with GST-B56α (UniProt Q15172). Briefly: pull-down; purified GST-B56α loaded on glutathione Sepharose beads, 2–3 mg nuclear protein lysate overnight at 4 °C, four washes with PBS; immunoblot; only the target purified.
The next assay concerns the target FLAG-tagged FBXW7 (UniProt Q969H0). The assay is described as follows: co-IP; anti-FLAG M2 beads, 2 h at 4 °C; NP40 buffer lysates of HEK293-T cells transfected with empty vector, FLAG-FBXW7 or FLAG-β-TrCP, treated with 5 μM MLN4924 for 6 h; immunoblot.
A further assay concerns the target FLAG-tagged β-TrCP (UniProt Q9Y297). The description is as above.
For assay [4], the target named is FLAG-S6K1 (ribosomal protein S6 kinase 1) (UniProt P23443). Briefly: co-IP; reciprocal immunoprecipitation using FLAG-S6K1 and V5-LCMT1 (Supplementary Fig. 6g).
Assay [5] deals with V5-LCMT1 wild type (leucine carboxyl methyltransferase 1) (UniProt Q9UIC8). Briefly: co-IP; anti-V5; lysates of HEK293-T cells transfected with V5-LCMT1 constructs, grown with 5 μM MLN4924 for 6 h (Fig. 5k) or serum-starved 24 h and stimulated with EGF for 6 h (Fig. 5l); immunoblot.
The next assay has as its target T1, V5-LCMT1 (S8/9/12A) (UniProt Q9UIC8).
T1 sequence: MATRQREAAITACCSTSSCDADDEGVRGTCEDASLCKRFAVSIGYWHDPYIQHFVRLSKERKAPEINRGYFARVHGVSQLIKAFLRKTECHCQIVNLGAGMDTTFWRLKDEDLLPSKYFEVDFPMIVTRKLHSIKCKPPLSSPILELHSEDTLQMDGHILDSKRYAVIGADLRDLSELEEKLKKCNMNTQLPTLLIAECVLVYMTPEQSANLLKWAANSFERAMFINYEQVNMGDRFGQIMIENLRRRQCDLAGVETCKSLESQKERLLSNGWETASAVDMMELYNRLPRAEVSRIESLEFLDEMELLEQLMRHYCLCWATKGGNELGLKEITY
Described as above.

By UniProt entry, the sequences of proteins in these tests, tags left out.
UniProt P30153: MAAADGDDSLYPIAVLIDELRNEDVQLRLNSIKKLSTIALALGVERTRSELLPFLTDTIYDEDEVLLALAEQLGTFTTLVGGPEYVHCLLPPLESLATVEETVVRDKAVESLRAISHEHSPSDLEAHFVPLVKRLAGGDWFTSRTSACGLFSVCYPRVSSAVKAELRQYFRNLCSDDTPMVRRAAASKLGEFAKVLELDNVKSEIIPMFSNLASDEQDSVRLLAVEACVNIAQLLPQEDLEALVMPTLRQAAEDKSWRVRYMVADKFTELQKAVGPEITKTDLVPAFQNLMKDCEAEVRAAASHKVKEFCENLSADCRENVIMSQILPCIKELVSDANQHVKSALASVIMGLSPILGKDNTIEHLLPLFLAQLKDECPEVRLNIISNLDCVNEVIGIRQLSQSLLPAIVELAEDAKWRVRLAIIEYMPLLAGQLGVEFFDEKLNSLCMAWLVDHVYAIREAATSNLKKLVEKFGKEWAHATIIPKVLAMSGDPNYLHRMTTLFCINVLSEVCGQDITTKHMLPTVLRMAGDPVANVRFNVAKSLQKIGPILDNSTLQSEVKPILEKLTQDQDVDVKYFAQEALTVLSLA
UniProt Q15172: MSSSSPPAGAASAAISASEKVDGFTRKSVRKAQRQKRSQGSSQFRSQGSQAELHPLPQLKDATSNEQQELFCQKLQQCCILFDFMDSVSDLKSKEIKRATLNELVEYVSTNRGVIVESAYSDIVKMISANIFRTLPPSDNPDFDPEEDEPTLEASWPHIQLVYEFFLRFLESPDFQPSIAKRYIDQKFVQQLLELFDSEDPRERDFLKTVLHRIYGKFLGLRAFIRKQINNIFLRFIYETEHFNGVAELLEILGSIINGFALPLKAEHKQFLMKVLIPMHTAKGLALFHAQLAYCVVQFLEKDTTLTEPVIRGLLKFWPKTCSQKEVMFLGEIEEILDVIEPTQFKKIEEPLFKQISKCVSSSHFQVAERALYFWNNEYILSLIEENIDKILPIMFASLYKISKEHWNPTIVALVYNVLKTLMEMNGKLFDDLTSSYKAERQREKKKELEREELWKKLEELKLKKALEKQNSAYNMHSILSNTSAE
UniProt Q969H0: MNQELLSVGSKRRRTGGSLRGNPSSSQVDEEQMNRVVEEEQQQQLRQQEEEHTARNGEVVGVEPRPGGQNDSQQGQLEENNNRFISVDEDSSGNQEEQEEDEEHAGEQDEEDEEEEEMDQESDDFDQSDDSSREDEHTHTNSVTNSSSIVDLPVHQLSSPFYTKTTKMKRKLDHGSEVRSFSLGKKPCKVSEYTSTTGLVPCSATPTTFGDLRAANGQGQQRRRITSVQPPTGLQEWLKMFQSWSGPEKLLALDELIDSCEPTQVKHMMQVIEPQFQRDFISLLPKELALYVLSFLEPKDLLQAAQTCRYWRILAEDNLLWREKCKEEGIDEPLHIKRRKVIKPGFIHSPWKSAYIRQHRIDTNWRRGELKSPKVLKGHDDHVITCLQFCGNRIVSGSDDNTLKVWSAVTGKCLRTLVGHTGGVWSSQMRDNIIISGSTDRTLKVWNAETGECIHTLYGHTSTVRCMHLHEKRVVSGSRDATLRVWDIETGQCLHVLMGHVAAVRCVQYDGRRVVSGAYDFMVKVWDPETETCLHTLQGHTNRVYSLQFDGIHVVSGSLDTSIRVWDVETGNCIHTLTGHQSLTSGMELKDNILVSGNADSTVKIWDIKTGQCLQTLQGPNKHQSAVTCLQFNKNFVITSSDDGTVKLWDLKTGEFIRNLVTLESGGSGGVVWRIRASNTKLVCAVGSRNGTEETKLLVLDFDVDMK
UniProt Q9Y297: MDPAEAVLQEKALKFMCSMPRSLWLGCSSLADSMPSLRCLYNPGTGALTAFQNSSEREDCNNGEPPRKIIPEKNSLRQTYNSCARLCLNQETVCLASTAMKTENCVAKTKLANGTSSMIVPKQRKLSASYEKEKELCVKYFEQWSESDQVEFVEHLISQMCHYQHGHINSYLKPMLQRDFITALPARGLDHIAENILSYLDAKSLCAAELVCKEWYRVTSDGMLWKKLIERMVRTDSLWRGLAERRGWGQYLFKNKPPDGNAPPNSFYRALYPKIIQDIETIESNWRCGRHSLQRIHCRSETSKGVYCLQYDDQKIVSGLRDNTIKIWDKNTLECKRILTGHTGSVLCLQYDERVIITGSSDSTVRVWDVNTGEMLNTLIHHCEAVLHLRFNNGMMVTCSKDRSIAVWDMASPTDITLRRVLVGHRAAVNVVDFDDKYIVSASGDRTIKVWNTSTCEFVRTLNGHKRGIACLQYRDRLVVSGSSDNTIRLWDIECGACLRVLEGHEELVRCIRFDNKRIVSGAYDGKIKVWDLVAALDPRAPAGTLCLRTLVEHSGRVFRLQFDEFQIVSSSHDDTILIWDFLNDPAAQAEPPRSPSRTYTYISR
UniProt P23443: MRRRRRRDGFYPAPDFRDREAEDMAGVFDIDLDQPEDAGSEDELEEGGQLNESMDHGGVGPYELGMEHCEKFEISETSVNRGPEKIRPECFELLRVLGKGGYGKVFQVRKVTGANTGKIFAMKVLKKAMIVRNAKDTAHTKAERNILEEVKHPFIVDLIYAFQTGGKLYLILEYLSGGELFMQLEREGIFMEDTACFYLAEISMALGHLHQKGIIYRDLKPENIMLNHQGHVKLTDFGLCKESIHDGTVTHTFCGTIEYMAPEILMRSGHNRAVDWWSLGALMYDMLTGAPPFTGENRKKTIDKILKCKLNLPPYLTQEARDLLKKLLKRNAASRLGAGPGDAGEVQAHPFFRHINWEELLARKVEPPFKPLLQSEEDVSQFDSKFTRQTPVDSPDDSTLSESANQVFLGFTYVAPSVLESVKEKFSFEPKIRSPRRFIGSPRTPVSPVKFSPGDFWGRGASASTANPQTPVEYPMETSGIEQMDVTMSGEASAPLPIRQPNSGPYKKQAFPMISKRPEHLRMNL
UniProt Q15648: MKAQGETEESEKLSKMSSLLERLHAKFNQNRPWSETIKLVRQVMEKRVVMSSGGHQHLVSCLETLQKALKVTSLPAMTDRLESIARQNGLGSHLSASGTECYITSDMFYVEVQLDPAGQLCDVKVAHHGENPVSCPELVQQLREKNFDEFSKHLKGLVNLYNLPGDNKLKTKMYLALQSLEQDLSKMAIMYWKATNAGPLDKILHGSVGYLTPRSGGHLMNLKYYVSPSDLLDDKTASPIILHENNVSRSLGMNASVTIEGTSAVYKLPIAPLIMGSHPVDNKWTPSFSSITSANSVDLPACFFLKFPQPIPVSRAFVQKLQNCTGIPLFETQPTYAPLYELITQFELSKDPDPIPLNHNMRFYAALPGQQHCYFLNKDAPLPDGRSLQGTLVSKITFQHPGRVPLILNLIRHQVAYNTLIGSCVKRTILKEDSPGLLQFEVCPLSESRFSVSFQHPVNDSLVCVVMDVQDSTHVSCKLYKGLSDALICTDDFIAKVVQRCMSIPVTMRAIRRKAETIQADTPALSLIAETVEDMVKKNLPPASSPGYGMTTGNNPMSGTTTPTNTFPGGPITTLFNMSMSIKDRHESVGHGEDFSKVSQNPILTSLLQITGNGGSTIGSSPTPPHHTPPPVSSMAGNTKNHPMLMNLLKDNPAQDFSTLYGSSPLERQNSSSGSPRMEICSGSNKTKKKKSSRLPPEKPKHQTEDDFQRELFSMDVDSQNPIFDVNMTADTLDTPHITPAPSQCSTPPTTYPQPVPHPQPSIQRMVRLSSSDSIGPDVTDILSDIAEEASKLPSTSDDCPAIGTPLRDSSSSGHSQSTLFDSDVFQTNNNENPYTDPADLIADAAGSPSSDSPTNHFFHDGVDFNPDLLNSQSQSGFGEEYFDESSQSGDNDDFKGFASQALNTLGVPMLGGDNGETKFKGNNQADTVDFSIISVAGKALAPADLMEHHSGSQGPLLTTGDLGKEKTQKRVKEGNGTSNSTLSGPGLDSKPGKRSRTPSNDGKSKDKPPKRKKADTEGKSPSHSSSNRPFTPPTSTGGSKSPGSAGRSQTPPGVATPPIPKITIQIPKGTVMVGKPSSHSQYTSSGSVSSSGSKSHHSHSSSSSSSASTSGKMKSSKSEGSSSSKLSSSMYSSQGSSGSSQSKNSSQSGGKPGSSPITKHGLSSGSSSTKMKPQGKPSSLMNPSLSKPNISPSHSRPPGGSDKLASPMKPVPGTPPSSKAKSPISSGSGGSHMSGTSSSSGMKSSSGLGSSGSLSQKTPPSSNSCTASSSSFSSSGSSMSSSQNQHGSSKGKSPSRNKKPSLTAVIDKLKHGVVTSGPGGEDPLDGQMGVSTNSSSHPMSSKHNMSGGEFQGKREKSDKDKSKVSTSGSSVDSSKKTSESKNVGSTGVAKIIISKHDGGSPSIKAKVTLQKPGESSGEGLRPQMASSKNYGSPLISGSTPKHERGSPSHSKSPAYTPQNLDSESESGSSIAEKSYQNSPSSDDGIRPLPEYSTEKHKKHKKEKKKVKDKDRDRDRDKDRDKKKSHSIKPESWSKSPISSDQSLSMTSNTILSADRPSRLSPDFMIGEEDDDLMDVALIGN

In the next assay the target is T2, V5-LCMT1 (S9A) (UniProt Q9UIC8).
T2 sequence: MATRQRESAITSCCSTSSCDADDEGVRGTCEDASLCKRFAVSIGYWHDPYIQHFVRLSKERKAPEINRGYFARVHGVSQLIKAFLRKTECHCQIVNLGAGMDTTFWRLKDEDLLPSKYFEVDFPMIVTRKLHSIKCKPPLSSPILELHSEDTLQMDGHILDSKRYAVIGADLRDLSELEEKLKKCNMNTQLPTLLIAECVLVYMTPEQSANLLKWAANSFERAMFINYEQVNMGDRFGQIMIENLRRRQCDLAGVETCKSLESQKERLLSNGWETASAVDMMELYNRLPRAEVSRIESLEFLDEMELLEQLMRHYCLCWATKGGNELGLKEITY
The assay is described as above.

For the next assay, the target named is T3, V5-LCMT1 (S8A) (UniProt Q9UIC8).
T3 sequence: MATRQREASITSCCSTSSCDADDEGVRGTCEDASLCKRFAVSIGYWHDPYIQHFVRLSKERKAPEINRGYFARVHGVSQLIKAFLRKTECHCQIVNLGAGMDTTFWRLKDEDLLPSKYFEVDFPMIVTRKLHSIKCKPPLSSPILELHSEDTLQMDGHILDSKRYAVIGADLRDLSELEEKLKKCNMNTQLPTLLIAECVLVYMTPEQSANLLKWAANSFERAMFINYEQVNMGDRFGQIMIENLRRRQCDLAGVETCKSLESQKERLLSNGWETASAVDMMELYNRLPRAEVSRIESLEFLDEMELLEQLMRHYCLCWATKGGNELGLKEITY
The assay is described as above.

The target in another assay is T4, V5-LCMT1 (S12A) (UniProt Q9UIC8).
T4 sequence: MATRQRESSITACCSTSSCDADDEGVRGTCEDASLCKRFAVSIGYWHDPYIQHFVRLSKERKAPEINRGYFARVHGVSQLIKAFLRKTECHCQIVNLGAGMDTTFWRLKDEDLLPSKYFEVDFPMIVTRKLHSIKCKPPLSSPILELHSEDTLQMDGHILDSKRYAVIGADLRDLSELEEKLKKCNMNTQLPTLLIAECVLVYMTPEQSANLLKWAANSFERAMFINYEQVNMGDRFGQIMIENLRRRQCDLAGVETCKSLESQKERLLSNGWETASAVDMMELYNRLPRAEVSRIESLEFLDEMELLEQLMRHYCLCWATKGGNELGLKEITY
The assay is described as above.

The target of assay [6] is V5-PP2A-Aα (UniProt P30153). The assay is described as follows: co-IP; V5 antibody coupled to Dynabeads, 30 min at 4 °C with lysates of LNCaP shNTC or shLCMT1 cells with V5-PP2A-Aα; EGFP as negative IP control; immunoblot. The source holds these as a separate data set.

Like-named read-outs stand apart in the source and are kept apart here. These are yes or no findings as the source states them, for the method shown. In cells and extracts the contact can be indirect. Some entries that bind do so weakly or less than the wild type. For part of these data: Where a sequence is shown, tags or fusion partners need not be part of it.

Consider “B56α regulatory subunit of PP2A (PPP2R5/B56 family) (from UniProt Q15172 1-486)”, for which the binding entry in the assay with V5-PP2A-Aα [1] is recorded as “binds”.

“FLAG-S6K1 (ribosomal protein S6 kinase 1) (from UniProt P23443 1-525) (enzyme)”: in assay [2], the binding result is on record as “binds”.

As to “HA-MED1 wild type (from UniProt Q15648 1-1581)”, the binding result (in assay [3]; with GST-B56α) was “binds” throughout.

Turning to “LCMT1 (endogenous) (from UniProt Q9UIC8 1-334) (enzyme)”, the values for the binding result in the assay with FLAG-tagged FBXW7 and in the assay with FLAG-tagged β-TrCP were “no binding” and “binds”, respectively.

Turning to “MED1 (endogenous) (from UniProt Q15648 1-1581)”, the binding entry in the assay with GST-B56α is “binds”.

Consider “V5-LCMT1 wild type (leucine carboxyl methyltransferase 1) (from UniProt Q9UIC8 1-334) (enzyme)”, for which the binding entry in [4] is “binds”.

Regarding “β-TrCP (endogenous) (from UniProt Q9Y297 1-605)”, the binding result in assay [5] is “binds”; with V5-LCMT1 (S8/9/12A), “no binding”; in the assay with V5-LCMT1 (S9A), “no binding”; with V5-LCMT1 (S8A), “no binding”; in the assay with V5-LCMT1 (S12A), “no binding”.

B1: STRN (Striatin) regulatory subunit of PP2A (protein, UniProt O43815 1-780)
chain: MDEQAGPGVFFSNNHPGAGGAKGLGPLAEAAAAGDGAAAAGAARAQYSLPGILHFLQHEWARFEVERAQWEVERAELQAQIAFLQGERKGQENLKKDLVRRIKMLEYALKQERAKYHKLKYGTELNQGDMKPPSYDSDEGNETEVQPQQNSQLMWKQGRQLLRQYLQEVGYTDTILDVKSKRVRALLGFSSDVTDREDDKNQDSVVNGTEAEVKETAMIAKSELTDSASVLDNFKFLESAAADFSDEDEDDDVDGREKSVIDTSTIVRKKALPDSGEDRDTKEALKEFDFLVTSEEGDNESRSAGDGTDWEKEDQCLMPEAWNVDQGVITKLKEQYKKERKGKKGVKRPNRSKLQDMLANLRDVDELPSLQPSVGSPSRPSSSRLPEHEINRADEVEALTFPPSSGKSFIMGADEALESELGLGELAGLTVANEADSLTYDIANNKDALRKTWNPKFTLRSHFDGIRALAFHPIEPVLITASEDHTLKMWNLQKTAPAKKSTSLDVEPIYTFRAHKGPVLCVVMSSNGEQCYSGGTDGLIQGWNTTNPNIDPYDSYDPSVLRGPLLGHTDAVWGLAYSAAHQRLLSCSADGTLRLWNTTEVAPALSVFNDTKELGIPASVDLVSSDPSHMVASFSKGYTSIFNMETQQRILTLESNVDTTANSSCQINRVISHPTLPISITAHEDRHIKFYDNNTGKLIHSMVAHLEAVTSLAVDPNGLYLMSGSHDCSIRLWNLESKTCIQEFTAHRKKFEESIHDVAFHPSKCYIASAGADALAKVFV
Take B1: the binding result in the assay with V5-PP2A-Aα [6] is “binds”.

B2: PR130 regulatory subunit of PP2A (protein, UniProt Q06190-1 1-1150)
chain: MAATYRLVVSTVNHYSSVVIDRRFEQAIHYCTGTCHTFTHGIDCIVVHHSVCADLLHIPVSQFKDADLNSMFLPHENGLSSAEGDYPQQAFTGIPRVKRGSTFQNTYNLKDIAGEAISFASGKIKEFSFEKLKNSNHAAYRKGRKVKSDSFNRRSVDLDLLCGHYNNDGNAPSFGLLRSSSVEEKPLSHRNSLDTNLTSMFLQNFSEEDLVTQILEKHKIDNFSSGTDIKMCLDILLKCSEDLKKCTDIIKQCIKKKSGSSISEGSGNDTISSSETVYMNVMTRLASYLKKLPFEFMQSGNNEALDLTELISNMPSLQLTPFSPVFGTEQPPKYEDVVQLSASDSGRFQTIELQNDKPNSRKMDTVQSIPNNSTNSLYNLEVNDPRTLKAVQVQSQSLTMNPLENVSSDDLMETLYIEEESDGKKALDKGQKTENGPSHELLKVNEHRAEFPEHATHLKKCPTPMQNEIGKIFEKSFVNLPKEDCKSKVSKFEEGDQRDFTNSSSQEEIDKLLMDLESFSQKMETSLREPLAKGKNSNFLNSHSQLTGQTLVDLEPKSKVSSPIEKVSPSCLTRIIETNGHKIEEEDRALLLRILESIEDFAQELVECKSSRGSLSQEKEMMQILQETLTTSSQANLSVCRSPVGDKAKDTTSAVLIQQTPEVIKIQNKPEKKPGTPLPPPATSPSSPRPLSPVPHVNNVVNAPLSINIPRFYFPEGLPDTCSNHEQTLSRIETAFMDIEEQKADIYEMGKIAKVCGCPLYWKAPMFRAAGGEKTGFVTAQSFIAMWRKLLNNHHDDASKFICLLAKPNCSSLEQEDFIPLLQDVVDTHPGLTFLKDAPEFHSRYITTVIQRIFYTVNRSWSGKITSTEIRKSNFLQTLALLEEEEDINQITDYFSYEHFYVIYCKFWELDTDHDLYISQADLSRYNDQASSSRIIERIFSGAVTRGKTIQKEGRMSYADFVWFLISEEDKRNPTSIEYWFRCMDVDGDGVLSMYELEYFYEEQCERMEAMGIEPLPFHDLLCQMLDLVKPAVDGKITLRDLKRCRMAHIFYDTFFNLEKYLDHEQRDPFAVQKDVENDGPEPSDWDRFAAEEYETLVAEESAQAQFQEGFEDYETDEPASPSEFGNKSNKILSASLPEKCGKLQSVDEE
With B2, the binding entry in the assay with V5-PP2A-Aα [6] was “binds”.

(Values after paper PMC10465527.)
